Data set [1] deals with TFIID (TATA-box binding general transcription factor). The experiment in a line: competition with a labelled probe. To be noted: EMSA competition on ice; competes at 3.5 and 0.35 pM, not at 0.035 and 0.0035 pM; data not shown; folded or branched DNA. (Mobility shift assays separate free from complexed probe on a gel.)
Data set [2] shares this test system. The experiment in a line: EMSA. To be noted: equimolar TFIID, on ice; shifted band seen at low competitor; label: 32P.

Construct, isoform or probe ends are uncertain for at least one entry.

Regarding “ATATGCTCTGCTTTTGCAGAGCATATAAGG / TGAGGTAGGATTTTTCCTACCTCACCTT [consensus dumbbell]”, the binding result in data set [1] is “binds”.

“GCAGAGCATATAAGGTGAGGTAGGA (double strand) [TFIID consensus duplex]”: the binding result in data set [2] is reported as “binds”.
